Only a part is listed here, and it is no random draw. Calls are pooled over several reports, among them a noisy single-well screen. Some of the results follow.
Tests used:
Details in all cases: stereoisomer not certain
OR4F4 = test system: T1, OR4F4
T1 sequence (whole entry): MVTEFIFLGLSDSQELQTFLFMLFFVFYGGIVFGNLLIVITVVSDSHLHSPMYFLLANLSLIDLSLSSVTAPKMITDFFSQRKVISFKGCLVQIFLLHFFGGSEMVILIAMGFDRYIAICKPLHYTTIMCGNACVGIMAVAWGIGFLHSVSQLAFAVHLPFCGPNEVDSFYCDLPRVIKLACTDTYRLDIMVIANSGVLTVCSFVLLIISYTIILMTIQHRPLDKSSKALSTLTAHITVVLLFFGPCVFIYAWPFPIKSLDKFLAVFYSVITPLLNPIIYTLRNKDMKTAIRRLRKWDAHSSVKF
How it was run: (§1)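 Values were gathered from published papers (main text and supplementary material), with extra details requested from the original authors when needed, and checked for typos and inconsistencies. Each receptor–molecule pair is called responsive (active) if the original authors judged the measured signal statistically different from baseline, and non-responsive (inactive) otherwise. Assay methods varied by source, often transient mammalian cell-line luciferase assays. Recorded details include cell line, G-protein, co-transfected protein and tags.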

Chains of the proteins cited; added tags and fusions are not shown. Lines headed by an entry give the natural chain unless they say otherwise; changes in a name come on top.
UniProt Q8NGC6: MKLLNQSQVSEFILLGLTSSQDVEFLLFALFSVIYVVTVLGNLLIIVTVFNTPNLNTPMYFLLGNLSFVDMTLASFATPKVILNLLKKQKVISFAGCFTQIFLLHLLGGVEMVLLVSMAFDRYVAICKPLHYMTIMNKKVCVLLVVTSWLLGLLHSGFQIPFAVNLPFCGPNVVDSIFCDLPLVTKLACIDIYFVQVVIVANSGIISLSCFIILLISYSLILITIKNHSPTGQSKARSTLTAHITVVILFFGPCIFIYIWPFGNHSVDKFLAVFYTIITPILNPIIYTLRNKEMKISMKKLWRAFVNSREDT
UniProt Q96R72: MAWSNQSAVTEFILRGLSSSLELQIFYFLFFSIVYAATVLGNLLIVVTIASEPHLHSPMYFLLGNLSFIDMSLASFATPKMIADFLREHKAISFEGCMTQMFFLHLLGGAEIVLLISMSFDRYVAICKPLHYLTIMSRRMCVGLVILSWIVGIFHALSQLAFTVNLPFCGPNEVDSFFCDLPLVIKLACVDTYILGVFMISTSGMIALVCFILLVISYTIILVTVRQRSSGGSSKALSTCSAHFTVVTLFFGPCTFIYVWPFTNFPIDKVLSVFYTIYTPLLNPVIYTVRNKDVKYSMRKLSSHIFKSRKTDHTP
UniProt Q8NGB6: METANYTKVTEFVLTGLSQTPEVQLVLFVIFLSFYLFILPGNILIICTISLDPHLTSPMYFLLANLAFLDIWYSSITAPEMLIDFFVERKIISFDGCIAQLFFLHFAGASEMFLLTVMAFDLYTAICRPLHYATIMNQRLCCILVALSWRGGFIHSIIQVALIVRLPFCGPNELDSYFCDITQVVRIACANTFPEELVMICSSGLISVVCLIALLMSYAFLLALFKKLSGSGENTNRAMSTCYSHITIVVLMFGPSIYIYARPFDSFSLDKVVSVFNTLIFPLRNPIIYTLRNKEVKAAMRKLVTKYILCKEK

OR4F6 (Homo sapiens) = biological target: T2, OR4F6 (Homo sapiens) (UniProt Q8NGB9)
T2 sequence (whole entry): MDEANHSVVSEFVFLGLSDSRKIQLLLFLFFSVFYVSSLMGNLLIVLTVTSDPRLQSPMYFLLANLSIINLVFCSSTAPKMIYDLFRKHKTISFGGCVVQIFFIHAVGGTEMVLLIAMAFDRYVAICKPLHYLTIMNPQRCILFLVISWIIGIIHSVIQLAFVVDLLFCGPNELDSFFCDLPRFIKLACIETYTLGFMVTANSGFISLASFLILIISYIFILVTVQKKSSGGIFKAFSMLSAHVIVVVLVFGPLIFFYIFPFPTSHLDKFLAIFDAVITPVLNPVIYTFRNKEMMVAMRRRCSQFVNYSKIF
How it was run: as §1

OR4K13 (Homo sapiens) = biological target: T3, OR4K13 (Homo sapiens) (UniProt Q8NH42)
T3 sequence (whole entry): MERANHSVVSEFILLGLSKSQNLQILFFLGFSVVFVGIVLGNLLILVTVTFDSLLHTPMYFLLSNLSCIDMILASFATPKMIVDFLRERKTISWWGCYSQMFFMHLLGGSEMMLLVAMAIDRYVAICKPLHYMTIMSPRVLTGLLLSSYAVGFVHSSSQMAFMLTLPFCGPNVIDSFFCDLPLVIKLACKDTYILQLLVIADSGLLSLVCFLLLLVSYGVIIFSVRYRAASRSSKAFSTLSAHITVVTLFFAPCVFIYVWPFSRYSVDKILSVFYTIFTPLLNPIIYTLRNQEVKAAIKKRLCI
How it was run: as §1

OR4K14 (Homo sapiens) = biological target: T4, OR4K14 (Homo sapiens) (UniProt Q8NGD5)
T4 sequence (whole entry): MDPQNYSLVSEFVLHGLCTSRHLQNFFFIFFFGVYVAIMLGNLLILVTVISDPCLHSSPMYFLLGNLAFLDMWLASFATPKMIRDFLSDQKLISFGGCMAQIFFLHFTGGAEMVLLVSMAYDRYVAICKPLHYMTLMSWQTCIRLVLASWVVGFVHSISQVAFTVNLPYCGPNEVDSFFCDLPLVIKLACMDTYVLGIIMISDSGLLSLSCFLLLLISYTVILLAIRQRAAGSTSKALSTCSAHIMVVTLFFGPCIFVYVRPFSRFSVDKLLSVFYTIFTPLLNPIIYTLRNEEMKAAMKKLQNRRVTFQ
How it was run: as §1

OR4K1 = test system: T5, OR4K1
T5 sequence (whole entry): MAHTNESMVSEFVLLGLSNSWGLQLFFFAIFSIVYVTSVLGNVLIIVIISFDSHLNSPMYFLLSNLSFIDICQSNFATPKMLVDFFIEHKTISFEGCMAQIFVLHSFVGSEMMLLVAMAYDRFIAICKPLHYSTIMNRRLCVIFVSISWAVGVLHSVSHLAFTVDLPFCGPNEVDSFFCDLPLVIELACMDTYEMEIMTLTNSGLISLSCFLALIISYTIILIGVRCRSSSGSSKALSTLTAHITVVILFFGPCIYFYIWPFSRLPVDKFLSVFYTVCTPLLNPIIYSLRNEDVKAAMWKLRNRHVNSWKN
How it was run: as §1

OR4K2 (Homo sapiens) = biological target: T6, OR4K2 (Homo sapiens) (UniProt Q8NGD2)
T6 sequence (whole entry): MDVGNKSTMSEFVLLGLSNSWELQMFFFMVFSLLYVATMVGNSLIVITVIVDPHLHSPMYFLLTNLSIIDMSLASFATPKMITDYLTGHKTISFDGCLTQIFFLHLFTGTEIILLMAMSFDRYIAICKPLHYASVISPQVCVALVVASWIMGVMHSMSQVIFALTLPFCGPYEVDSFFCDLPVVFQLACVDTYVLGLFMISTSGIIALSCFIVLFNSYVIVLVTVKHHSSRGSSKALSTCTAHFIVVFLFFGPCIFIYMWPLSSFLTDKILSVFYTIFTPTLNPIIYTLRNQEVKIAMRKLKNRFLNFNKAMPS
How it was run: as §1

OR4K3 = test system: T7, OR4K3
T7 sequence (whole entry): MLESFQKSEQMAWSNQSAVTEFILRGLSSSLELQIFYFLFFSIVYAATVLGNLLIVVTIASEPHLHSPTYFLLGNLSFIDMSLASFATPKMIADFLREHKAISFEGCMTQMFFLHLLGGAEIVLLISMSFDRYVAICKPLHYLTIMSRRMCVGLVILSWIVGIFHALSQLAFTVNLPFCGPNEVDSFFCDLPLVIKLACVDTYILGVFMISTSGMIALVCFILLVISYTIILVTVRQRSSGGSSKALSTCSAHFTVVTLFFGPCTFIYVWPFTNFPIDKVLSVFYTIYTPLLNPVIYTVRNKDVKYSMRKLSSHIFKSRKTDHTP
How it was run: as §1

OR4K5 (Homo sapiens) = biological target: T8, OR4K5 (Homo sapiens) (UniProt Q8NGD3)
T8 sequence (whole entry): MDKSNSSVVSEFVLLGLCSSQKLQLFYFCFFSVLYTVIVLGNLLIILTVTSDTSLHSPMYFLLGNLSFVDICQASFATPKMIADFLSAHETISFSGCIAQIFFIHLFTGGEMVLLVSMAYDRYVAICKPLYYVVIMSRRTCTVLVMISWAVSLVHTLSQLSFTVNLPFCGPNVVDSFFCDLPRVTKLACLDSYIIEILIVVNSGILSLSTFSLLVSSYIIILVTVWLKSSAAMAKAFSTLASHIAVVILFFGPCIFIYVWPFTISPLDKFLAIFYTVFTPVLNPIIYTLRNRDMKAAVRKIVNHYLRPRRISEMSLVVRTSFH
How it was run: as §1

OR4KF = test system: T9, OR4KF
T9 sequence (whole entry): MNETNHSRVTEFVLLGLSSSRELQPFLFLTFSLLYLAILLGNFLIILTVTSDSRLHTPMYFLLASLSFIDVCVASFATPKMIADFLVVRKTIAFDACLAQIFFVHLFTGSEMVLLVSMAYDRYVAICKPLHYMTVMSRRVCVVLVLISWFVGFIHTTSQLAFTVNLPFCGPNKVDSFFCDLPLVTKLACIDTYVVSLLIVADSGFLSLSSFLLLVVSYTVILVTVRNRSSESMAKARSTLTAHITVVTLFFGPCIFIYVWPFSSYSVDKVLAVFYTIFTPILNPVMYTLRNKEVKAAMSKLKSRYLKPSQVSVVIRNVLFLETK
How it was run: as §1

OR4KH = test system: T10, OR4KH
T10 sequence (whole entry): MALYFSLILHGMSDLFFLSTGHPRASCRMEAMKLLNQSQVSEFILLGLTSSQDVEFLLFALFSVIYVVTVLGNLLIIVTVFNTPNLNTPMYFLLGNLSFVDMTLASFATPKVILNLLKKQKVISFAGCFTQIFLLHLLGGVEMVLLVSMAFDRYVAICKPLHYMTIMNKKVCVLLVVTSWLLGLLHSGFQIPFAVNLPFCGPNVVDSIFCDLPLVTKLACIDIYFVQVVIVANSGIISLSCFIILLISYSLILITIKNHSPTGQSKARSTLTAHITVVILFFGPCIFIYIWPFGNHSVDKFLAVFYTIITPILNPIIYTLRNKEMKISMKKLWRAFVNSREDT
How it was run: as §1

OR4L1 = test system: T11, OR4L1
T11 sequence (whole entry): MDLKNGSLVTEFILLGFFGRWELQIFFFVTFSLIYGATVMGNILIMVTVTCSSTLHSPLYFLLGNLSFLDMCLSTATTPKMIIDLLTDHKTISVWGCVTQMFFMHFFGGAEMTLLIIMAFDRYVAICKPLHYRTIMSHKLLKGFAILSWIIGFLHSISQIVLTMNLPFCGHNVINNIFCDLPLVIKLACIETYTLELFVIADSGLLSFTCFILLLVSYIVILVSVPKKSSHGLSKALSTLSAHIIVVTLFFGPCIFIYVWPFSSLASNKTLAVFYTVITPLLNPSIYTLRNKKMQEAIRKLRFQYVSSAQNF
How it was run: as §1

OR4M1 (Homo sapiens) = biological target: T12, OR4M1 (Homo sapiens) (UniProt Q8NGD0)
T12 sequence (whole entry): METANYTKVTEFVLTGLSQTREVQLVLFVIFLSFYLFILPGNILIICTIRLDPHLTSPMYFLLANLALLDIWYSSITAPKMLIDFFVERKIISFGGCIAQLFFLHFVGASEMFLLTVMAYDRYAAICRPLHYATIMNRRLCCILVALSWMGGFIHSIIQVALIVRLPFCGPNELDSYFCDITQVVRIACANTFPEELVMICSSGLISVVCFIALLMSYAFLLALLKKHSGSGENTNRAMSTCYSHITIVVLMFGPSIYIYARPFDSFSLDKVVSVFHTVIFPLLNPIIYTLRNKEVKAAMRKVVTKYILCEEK
How it was run: as §1

OR4N2 (Homo sapiens) = biological target: T13, OR4N2 (Homo sapiens) (UniProt Q8NGD1)
T13 sequence (whole entry): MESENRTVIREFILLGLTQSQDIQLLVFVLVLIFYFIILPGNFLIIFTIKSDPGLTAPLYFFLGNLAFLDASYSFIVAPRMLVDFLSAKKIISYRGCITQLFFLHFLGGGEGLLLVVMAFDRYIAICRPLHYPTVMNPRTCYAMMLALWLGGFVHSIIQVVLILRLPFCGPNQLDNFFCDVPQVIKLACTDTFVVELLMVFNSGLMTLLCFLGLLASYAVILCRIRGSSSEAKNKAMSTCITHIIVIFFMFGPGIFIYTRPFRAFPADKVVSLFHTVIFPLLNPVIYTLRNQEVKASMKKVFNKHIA
How it was run: as §1

OR4K1 (Homo sapiens) = OR4K1 (Homo sapiens) (UniProt Q8NGD4)
How it was run: as §1

OR4K17 (Homo sapiens) = OR4K17 (Homo sapiens) (UniProt Q8NGC6)
How it was run: as §1

OR4K3 (Homo sapiens) = OR4K3 (Homo sapiens) (UniProt Q96R72)
How it was run: as §1

OR4L1 (Homo sapiens) = OR4L1 (Homo sapiens) (UniProt Q8NH43)
How it was run: as §1

OR4M2 (Homo sapiens) = OR4M2 (Homo sapiens) (UniProt Q8NGB6)
How it was run: as §1

Row | SMILES | odorant receptor agonist call (OR4F4) | odorant receptor agonist call (OR4F6 (Homo sapiens)) | odorant receptor agonist call (OR4K13 (Homo sapiens)) | odorant receptor agonist call (OR4K14 (Homo sapiens)) | odorant receptor agonist call (OR4K1) | odorant receptor agonist call (OR4K2 (Homo sapiens)) | odorant receptor agonist call (OR4K3) | odorant receptor agonist call (OR4K5 (Homo sapiens)) | odorant receptor agonist call (OR4KF) | odorant receptor agonist call (OR4KH) | odorant receptor agonist call (OR4L1) | odorant receptor agonist call (OR4M1 (Homo sapiens)) | odorant receptor agonist call (OR4N2 (Homo sapiens)) | odorant receptor agonist call (OR4K1 (Homo sapiens)) | odorant receptor agonist call (OR4K17 (Homo sapiens)) | odorant receptor agonist call (OR4K3 (Homo sapiens)) | odorant receptor agonist call (OR4L1 (Homo sapiens)) | odorant receptor agonist call (OR4M2 (Homo sapiens))
1 | CC(C)C=O | inactive | inactive | inactive | inactive | inactive | inactive | inactive | inactive | inactive | inactive | inactive | inactive | inactive |  |  |  |  | 
2 | O=C1CCCCCCCCCCCC(=O)OCCO1 | inactive | inactive | inactive | inactive | inactive | inactive | inactive | inactive | inactive | inactive | inactive | active | inactive |  |  |  |  | 
3 | CC1CCC(C(C)C)C(O)C1 (stereo unspecified) | active | active | inactive | inactive | inactive | inactive | inactive | inactive | active | inactive | inactive | active | inactive |  |  |  |  | 
4 | CCCCCCCCCCC=O | active | inactive | inactive | inactive | inactive | inactive | inactive | inactive | active | inactive | inactive | inactive | inactive |  |  |  |  | 
5 | CC12C=CCC1C1CCC3CC(=O)CCC3(C)C1CC2 (stereo unspecified) | active | inactive | inactive | inactive | inactive | inactive | inactive | inactive | inactive | inactive | inactive | inactive | inactive | inactive | inactive | inactive | inactive | inactive
6 | C=CCSCC=C | inactive | inactive | inactive | inactive | inactive | inactive | inactive | inactive | active | inactive | inactive | inactive | inactive |  |  |  |  | 
7 | CCCCCCOC(=O)CCC | inactive | inactive | inactive | inactive | inactive | inactive | inactive | inactive | inactive | inactive | inactive | inactive | inactive |  |  |  |  | 
8 | CC=Cc1ccc(O)c(OC)c1 | inactive | inactive | inactive | inactive | inactive | inactive | inactive | inactive | active | inactive | inactive | inactive | inactive |  |  |  |  | 
9 | CC(=O)C(C)=O | inactive | inactive | inactive | inactive | inactive | inactive | inactive | inactive | active | inactive | inactive | inactive | inactive |  |  |  |  | 
10 | COc1ccccc1O | inactive | inactive | inactive | inactive | inactive | inactive | inactive | inactive | inactive | inactive | inactive | inactive | inactive |  |  |  |  | 
11 | c1cnccn1 | inactive | inactive | inactive | inactive | inactive | inactive | inactive | inactive | active | inactive | inactive | inactive | inactive |  |  |  |  | 
12 | C=CC(C)(O)CCC=C(C)C (stereo unspecified) | inactive | inactive | inactive | inactive | inactive | inactive | inactive | inactive | inactive | inactive | inactive | inactive | inactive |  |  |  |  | 

An excerpt from above, reduced to odorant receptor agonist call (OR4M1 (Homo sapiens)) and odorant receptor agonist call (OR4K1):
Row	SMILES	odorant receptor agonist call (OR4M1 (Homo sapiens))	odorant receptor agonist call (OR4K1)
7	CCCCCCOC(=O)CCC	inactive	inactive
8	CC=Cc1ccc(O)c(OC)c1	inactive	inactive

Reference: the M2OR odorant receptor database
